Publication doi:10.1101/2023.10.04.560926
These are yes or no findings as the source states them, for the method shown. In cells and extracts the contact can be indirect. Some results given as binding are weak or reduced against the parent protein; the word gives no strength. For part of these data: Sequences can lack the tags named with a protein. Each block holds one molecule with its values, some of them ahead of it.

Amino acid sequences for entries named in this document (tags omitted).
UniProt P23458: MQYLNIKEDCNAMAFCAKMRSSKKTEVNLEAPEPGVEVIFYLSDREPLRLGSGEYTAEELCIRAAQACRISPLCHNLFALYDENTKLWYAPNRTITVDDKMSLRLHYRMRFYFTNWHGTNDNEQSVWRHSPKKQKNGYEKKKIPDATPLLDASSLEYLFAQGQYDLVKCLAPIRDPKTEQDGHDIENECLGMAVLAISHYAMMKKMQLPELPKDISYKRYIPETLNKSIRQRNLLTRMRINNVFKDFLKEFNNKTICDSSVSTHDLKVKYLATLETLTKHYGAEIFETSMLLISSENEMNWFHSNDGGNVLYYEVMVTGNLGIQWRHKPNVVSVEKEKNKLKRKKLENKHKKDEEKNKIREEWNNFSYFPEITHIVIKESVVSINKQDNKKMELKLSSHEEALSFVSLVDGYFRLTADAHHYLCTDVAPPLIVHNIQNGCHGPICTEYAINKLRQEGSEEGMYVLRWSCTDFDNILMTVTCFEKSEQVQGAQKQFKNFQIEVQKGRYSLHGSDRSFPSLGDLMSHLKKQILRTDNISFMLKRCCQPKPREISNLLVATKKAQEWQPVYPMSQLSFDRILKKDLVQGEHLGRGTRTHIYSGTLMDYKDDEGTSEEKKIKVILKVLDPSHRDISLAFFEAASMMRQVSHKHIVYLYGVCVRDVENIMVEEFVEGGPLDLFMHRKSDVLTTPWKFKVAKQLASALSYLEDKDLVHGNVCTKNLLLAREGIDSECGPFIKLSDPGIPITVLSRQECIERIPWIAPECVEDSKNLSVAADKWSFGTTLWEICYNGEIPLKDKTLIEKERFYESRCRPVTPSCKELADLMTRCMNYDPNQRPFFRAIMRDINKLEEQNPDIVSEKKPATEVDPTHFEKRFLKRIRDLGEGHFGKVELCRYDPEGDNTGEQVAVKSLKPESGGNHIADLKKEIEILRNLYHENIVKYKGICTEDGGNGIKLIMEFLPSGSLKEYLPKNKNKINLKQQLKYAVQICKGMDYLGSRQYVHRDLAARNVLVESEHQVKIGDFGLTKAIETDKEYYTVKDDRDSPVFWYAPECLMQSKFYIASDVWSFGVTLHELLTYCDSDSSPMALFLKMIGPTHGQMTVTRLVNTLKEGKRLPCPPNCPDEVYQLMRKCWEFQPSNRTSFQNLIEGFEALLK
UniProt P42224: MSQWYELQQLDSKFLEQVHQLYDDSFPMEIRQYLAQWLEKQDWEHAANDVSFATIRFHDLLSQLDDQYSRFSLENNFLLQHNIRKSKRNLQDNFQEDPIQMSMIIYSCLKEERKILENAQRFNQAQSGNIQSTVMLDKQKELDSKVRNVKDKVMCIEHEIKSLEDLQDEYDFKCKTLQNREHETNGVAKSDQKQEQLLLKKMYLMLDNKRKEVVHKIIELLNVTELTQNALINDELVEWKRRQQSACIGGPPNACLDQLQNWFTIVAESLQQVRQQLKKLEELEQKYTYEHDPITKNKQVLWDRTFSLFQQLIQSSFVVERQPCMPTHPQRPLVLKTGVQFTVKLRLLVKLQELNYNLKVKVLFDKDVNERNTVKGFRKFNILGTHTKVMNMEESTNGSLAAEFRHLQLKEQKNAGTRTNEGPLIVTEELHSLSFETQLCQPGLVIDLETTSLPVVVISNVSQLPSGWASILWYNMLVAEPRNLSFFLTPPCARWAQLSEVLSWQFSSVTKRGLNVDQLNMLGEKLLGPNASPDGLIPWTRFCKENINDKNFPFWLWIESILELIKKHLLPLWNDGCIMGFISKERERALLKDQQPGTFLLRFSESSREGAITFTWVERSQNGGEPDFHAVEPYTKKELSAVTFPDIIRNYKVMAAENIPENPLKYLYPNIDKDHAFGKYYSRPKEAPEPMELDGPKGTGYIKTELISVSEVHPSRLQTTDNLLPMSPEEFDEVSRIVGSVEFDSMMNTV
UniProt P52630: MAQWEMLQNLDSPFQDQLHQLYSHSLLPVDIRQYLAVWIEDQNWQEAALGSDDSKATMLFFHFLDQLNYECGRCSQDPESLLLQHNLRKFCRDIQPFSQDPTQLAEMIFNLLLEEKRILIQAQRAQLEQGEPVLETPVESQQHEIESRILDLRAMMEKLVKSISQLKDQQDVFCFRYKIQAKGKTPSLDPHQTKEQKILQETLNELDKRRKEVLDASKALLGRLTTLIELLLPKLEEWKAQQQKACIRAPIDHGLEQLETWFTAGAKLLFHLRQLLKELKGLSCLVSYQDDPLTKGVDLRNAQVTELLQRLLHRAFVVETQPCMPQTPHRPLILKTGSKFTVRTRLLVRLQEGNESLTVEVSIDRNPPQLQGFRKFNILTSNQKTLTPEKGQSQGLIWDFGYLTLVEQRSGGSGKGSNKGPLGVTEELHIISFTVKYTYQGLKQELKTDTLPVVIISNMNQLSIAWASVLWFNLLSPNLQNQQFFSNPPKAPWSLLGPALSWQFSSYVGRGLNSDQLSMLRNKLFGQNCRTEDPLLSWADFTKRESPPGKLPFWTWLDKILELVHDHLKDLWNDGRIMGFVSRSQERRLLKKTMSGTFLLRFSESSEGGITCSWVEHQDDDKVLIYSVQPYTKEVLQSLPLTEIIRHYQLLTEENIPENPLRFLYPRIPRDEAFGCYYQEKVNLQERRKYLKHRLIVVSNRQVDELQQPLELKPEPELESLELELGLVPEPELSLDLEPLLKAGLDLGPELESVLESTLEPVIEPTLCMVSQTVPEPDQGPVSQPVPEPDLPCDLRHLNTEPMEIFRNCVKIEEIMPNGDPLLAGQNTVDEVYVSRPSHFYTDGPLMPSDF

Tests used:
Assay in all cases: co-IP
Flag-PJA2 (human) = molecular target: T1, Flag-PJA2 (human) (UniProt O43164)
T1 sequence: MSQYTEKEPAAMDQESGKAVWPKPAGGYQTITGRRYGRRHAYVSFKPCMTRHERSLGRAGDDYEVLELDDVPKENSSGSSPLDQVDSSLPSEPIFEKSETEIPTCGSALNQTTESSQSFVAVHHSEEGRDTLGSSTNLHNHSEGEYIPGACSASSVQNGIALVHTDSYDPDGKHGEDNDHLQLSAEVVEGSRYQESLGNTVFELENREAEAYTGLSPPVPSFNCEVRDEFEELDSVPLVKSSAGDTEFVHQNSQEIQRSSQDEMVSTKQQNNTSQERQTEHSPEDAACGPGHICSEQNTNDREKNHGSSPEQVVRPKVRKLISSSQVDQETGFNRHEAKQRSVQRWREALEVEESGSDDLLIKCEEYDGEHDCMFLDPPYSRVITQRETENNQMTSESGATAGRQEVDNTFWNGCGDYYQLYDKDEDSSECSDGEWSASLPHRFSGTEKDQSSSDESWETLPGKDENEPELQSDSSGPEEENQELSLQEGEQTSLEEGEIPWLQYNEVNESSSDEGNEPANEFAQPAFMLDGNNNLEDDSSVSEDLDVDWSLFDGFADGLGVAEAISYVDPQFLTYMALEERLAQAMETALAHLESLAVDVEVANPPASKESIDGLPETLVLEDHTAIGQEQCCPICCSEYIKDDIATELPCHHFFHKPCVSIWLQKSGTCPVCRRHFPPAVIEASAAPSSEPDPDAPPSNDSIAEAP

Flag-PJA2-rm (human) = molecular target: T2, Flag-PJA2-rm (human) (UniProt O43164)
T2 sequence: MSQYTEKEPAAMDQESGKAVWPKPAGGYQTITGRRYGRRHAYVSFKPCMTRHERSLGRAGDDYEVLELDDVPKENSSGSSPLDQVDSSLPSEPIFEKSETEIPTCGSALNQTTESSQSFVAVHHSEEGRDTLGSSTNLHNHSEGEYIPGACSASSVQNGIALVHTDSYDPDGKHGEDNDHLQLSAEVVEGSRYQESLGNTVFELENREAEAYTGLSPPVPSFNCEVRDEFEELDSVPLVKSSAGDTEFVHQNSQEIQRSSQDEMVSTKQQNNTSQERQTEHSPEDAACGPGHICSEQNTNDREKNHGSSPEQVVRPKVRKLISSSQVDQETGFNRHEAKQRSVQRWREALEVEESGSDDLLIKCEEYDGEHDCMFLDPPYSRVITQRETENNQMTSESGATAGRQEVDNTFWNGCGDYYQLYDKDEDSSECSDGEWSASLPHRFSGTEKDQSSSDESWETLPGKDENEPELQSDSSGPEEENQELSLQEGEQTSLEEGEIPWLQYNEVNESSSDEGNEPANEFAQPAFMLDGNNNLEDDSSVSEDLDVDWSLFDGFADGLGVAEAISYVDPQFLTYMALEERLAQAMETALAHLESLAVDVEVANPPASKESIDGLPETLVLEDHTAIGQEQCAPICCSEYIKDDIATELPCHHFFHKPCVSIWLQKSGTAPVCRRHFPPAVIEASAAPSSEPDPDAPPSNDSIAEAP

V5-TYK2 (human) = V5-TYK2 (human) (UniProt P29597)
V5-TYK2(1-588) (human) = molecular target: T3, V5-TYK2(1-588) (human) (UniProt P29597)
T3 sequence: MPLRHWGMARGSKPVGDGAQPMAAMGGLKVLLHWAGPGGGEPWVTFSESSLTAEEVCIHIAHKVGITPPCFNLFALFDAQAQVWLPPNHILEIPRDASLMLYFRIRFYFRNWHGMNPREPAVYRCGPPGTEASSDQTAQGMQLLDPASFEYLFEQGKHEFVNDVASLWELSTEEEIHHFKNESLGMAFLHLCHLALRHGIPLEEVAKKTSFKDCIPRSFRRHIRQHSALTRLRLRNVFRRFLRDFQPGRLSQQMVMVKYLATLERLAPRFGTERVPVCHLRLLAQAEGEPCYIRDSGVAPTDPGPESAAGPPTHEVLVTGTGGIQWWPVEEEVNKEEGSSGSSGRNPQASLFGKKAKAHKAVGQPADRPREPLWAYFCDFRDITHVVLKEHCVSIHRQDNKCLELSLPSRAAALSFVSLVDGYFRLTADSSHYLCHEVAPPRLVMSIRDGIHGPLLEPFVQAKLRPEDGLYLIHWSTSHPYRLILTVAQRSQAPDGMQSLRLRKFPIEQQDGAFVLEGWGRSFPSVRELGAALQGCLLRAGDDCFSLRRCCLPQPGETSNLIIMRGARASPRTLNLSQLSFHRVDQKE

[1] = molecular target: T4, TurboID-V5-IRF9 (HEK293T) (human) (UniProt Q00978)
T4 sequence: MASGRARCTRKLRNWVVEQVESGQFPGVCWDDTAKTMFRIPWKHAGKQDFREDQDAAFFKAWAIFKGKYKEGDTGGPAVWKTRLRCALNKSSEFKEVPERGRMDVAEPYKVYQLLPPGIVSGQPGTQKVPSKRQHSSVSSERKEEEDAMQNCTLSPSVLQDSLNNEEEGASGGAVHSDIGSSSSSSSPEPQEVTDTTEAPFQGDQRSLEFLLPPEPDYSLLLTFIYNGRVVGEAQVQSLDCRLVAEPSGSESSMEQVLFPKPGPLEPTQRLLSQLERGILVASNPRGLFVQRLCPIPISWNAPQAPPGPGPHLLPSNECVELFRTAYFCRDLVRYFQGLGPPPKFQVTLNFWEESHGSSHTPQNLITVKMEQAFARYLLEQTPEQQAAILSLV

[2] = molecular target: TurboID-V5-JAK1 (HEK293T) (human) (UniProt P23458)
[3] = molecular target: TurboID-V5-STAT1 (HEK293T) (human) (UniProt P42224)
[4] = molecular target: TurboID-V5-STAT2 (HEK293T) (human) (UniProt P52630)
[5] = molecular target: TurboID-V5-TYK2 (HEK293T) (human) (UniProt P29597)

binding (Flag-PJA2 (human)): binds
binding (Flag-PJA2-rm (human)): binds
Molecule: TYK2 (endogenous, HEK293T) (from UniProt P29597 1-1187) (enzyme)

binding (V5-TYK2 (human)): binds
binding (V5-TYK2(1-588) (human)): binds
B1: PJA2 (endogenous, HEK293T) (enzyme, UniProt O43164 1-708)
chain: MSQYTEKEPAAMDQESGKAVWPKPAGGYQTITGRRYGRRHAYVSFKPCMTRHERSLGRAGDDYEVLELDDVPKENSSGSSPLDQVDSSLPSEPIFEKSETEIPTCGSALNQTTESSQSFVAVHHSEEGRDTLGSSTNLHNHSEGEYIPGACSASSVQNGIALVHTDSYDPDGKHGEDNDHLQLSAEVVEGSRYQESLGNTVFELENREAEAYTGLSPPVPSFNCEVRDEFEELDSVPLVKSSAGDTEFVHQNSQEIQRSSQDEMVSTKQQNNTSQERQTEHSPEDAACGPGHICSEQNTNDREKNHGSSPEQVVRPKVRKLISSSQVDQETGFNRHEAKQRSVQRWREALEVEESGSDDLLIKCEEYDGEHDCMFLDPPYSRVITQRETENNQMTSESGATAGRQEVDNTFWNGCGDYYQLYDKDEDSSECSDGEWSASLPHRFSGTEKDQSSSDESWETLPGKDENEPELQSDSSGPEEENQELSLQEGEQTSLEEGEIPWLQYNEVNESSSDEGNEPANEFAQPAFMLDGNNNLEDDSSVSEDLDVDWSLFDGFADGLGVAEAISYVDPQFLTYMALEERLAQAMETALAHLESLAVDVEVANPPASKESIDGLPETLVLEDHTAIGQEQCCPICCSEYIKDDIATELPCHHFFHKPCVSIWLQKSGTCPVCRRHFPPAVIEASAAPSSEPDPDAPPSNDSIAEAP

binding [1]: no binding
binding [2]: binds
binding [3]: no binding
binding [4]: no binding
binding [5]: binds
B2: Flag-PJA2 (enzyme, UniProt O43164-1 1-708)
chain: MSQYTEKEPAAMDQESGKAVWPKPAGGYQTITGRRYGRRHAYVSFKPCMTRHERSLGRAGDDYEVLELDDVPKENSSGSSPLDQVDSSLPSEPIFEKSETEIPTCGSALNQTTESSQSFVAVHHSEEGRDTLGSSTNLHNHSEGEYIPGACSASSVQNGIALVHTDSYDPDGKHGEDNDHLQLSAEVVEGSRYQESLGNTVFELENREAEAYTGLSPPVPSFNCEVRDEFEELDSVPLVKSSAGDTEFVHQNSQEIQRSSQDEMVSTKQQNNTSQERQTEHSPEDAACGPGHICSEQNTNDREKNHGSSPEQVVRPKVRKLISSSQVDQETGFNRHEAKQRSVQRWREALEVEESGSDDLLIKCEEYDGEHDCMFLDPPYSRVITQRETENNQMTSESGATAGRQEVDNTFWNGCGDYYQLYDKDEDSSECSDGEWSASLPHRFSGTEKDQSSSDESWETLPGKDENEPELQSDSSGPEEENQELSLQEGEQTSLEEGEIPWLQYNEVNESSSDEGNEPANEFAQPAFMLDGNNNLEDDSSVSEDLDVDWSLFDGFADGLGVAEAISYVDPQFLTYMALEERLAQAMETALAHLESLAVDVEVANPPASKESIDGLPETLVLEDHTAIGQEQCCPICCSEYIKDDIATELPCHHFFHKPCVSIWLQKSGTCPVCRRHFPPAVIEASAAPSSEPDPDAPPSNDSIAEAP
